Assay results as given in patent publication US10336832.
Results are given in words; binding and its absence hold for the method and conditions named. A result given as binding can be weak or reduced; the word gives no strength.

B1: M6-D09 (Fab, V domains shown)
VH: EVQLLESGGGLVQPGGSLRLSCAASGFTFSFYYMVWVRQAPGKGLEWVSVIYPSGGITVYADSVKGRFTISRDNSKNTLYLQMNSLRAEDTAVYYCARDKWAVMPPYYYYAMDVWGQGTTVTVSS
VL: DIQMTQSPSSLSASVGDRVTITCRASQSIRNYLNWYQQKPGKAPNLLIYAASTLQSGVPARFSGSGSGTDFTLTISSLQPEDFATYYCQQLSGYPHTFGQGTKLEIK
B2: M35-G04 (Fab, V domains shown)
VH: EVQLLESGGGLVQPGGSLRLSCAASGFTFSYYHMSWVRQAPGKGLEWVSVISPSGGSTKYADSVKGRFTISRDNSKNTLYLQMNSLRAEDTAVYYCARGGSSDYAWGSYRRPYYFDYWGQGTLVTVSS
VL: DIQMTQSPATLSLSPGERATLSCRASQSVSSYLAWYQQKPGQAPRLLIYDASNRATGIPARFSGSGSGTDFTLTISSLEPEDFAVYYCQQRSNWPRGFTFGPGTKVDIK
B3: M29-D09 (Fab, V domains shown)
VH: EVQLLESGGGLVQPGGSLRLSCAASGFTFSWYTMVWVRQAPGKGLEWVSYIYPSGGATFYADSVKGRFTISRDNSKNTLYLQMNSLRAEDTAVYYCAMGSYDYIWGFYSDHWGQGTLVTVSS
VL: QSALTQPPTVSVSPGQTARITCSGNKLGDKYVAWYQQKPGQSPMLVIYQDTKRPSRVSERFSGSNSANTATLSISGTQALDEADYYCQAWDSSIVIFGGGTRLTVL

Assays:
[1] = biological target: human prekallikrein (human); experiment: binding category
[2] = biological target: human prekallikrein (human); experiment: characteristics
[3] = biological target: human pKal-AEBSF complex (human); experiment: Biacore

binding [1]	binding [2]	binding [3]	Binder
binds	binds		B1
binds	binds		B2
		binds	B3
